Data taken from US20240059769A1.
No constants are given. Whether binding was seen depends on the method and setting. Some binding calls cover weakened binding; strength is not graded here.

Legend:
BDG33.023 [1] = assay: competition ELISA: 20 nM antibody pre-incubated with soluble hIL-13 (0.78-200 nM), then on a plate coated with hIL-13; bound IgG detected with anti-human Fc-HRP
BDG33.025 = assay: as above
BDG33.023 [2] = assay: cross-competition ELISA: 20 nM antibody pre-incubated with soluble hIL-13 (0.78-200 nM), then on a plate coated with hTSLP; bound IgG detected with anti-human Fc-HRP

binding (BDG33.023 [1]): binds
binding (BDG33.025): binds
binding (BDG33.023 [2]): binds
Substance: recombinant human IL-13 (from UniProt P35225 35-146) (ligand)
